The target in test [1] is T1, AtCERK1 (endogenous, precipitated with anti-AtCERK1 antibody) (Arabidopsis thaliana (endogenous in Arabidopsis plants)) (UniProt A8R7E6).
T1 sequence: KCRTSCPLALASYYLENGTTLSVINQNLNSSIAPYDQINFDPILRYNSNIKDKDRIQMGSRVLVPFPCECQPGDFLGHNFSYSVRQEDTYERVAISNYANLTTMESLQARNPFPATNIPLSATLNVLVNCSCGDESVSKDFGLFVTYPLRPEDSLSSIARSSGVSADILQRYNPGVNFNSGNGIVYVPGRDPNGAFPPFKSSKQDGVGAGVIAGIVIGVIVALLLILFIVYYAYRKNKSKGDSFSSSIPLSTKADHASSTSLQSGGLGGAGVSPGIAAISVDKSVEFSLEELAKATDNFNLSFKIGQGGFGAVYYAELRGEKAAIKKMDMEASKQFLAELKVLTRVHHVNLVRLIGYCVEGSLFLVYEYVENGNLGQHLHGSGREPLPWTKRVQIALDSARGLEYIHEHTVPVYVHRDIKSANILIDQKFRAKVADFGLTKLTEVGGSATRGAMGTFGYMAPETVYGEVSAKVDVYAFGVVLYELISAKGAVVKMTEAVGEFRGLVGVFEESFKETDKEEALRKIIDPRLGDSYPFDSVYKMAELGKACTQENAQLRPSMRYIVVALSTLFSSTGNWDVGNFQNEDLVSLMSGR
Briefly: co-IP; IP with anti-AtCERK1 antibody from transgenic Arabidopsis Atlyk5-2 plants expressing AtLYK5, AtLYK5 K395E or AtLYK5 ΔKD; tissue harvested before or 15 min after 1 µM chitooctaose.

Test [2] deals with T2, AtLYK4-Myc (Myc-tagged AtLYK4) (Arabidopsis thaliana) (UniProt O64825).
T2 sequence: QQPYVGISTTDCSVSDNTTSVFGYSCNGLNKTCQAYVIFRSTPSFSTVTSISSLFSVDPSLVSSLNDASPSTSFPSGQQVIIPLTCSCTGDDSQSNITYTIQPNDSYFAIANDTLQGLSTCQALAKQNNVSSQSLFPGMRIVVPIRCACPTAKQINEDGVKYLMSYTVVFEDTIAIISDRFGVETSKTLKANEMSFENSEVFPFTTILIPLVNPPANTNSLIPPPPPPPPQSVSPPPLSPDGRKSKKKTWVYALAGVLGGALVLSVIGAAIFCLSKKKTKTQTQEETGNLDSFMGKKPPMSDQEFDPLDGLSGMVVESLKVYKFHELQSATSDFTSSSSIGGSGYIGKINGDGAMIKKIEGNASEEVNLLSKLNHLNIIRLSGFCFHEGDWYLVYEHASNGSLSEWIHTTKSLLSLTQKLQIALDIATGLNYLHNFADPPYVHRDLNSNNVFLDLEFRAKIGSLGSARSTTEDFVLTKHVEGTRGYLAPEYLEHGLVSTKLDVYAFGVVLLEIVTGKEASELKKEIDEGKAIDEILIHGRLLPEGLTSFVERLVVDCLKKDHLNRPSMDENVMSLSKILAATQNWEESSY
Description: co-IP; HA- and Myc-tagged proteins co-expressed in Arabidopsis protoplasts (Col-0; for AtLYK5 with itself also Atcerk1 mutant); with or without 1 µM chitooctaose or other chitin oligomers (15 min); IP with anti-Myc antibody; lysis in 50 mM Tris pH 7.6, 150 mM NaCl, 0.5% Triton X-100.

Test [3] has as its target AtLYK5-Myc (Myc-tagged AtLYK5) (Arabidopsis thaliana) (UniProt O22808). The test is described as above.
For test [4], the target named is AtLYK5-HA (full length AtLYK5 under its native promoter in Atlyk5-2 mutant plants) (Arabidopsis thaliana) (UniProt O22808). Briefly: SDS-PAGE with reducing agent and immunoblot; crude protein of transgenic Arabidopsis expressing AtLYK5-HA in Atlyk5-2, boiled 5 min after adding 50 mM DTT; anti-HA blot.

Binding data for four molecules are collected here from article PMC4356144, “The kinase LYK5 is a major chitin receptor in Arabidopsis and forms a chitin-induced complex with related kinase CERK1” (eLife, 2014).

No constants are given. Whether binding was seen depends on the method and setting. For some of these results: In cells and extracts the contact can be indirect. Some results given as binding are weak or reduced against the parent protein; the word gives no strength. Tags and fused reporters may be left off the sequences shown.

B1: AtLYK5^ΔKD (1–320 aa, deletion of kinase domain) with a C-terminal HA tag (domain or fragment, UniProt O22808 27-320)
chain: QQPYVNNHQLACEVRVYDNITNGFTCNGPPSCRSYLTFWSQPPYNTADSIAKLLNVSAAEIQSINNLPTATTRIPTRELVVIPANCSCSSSSGGFYQHNATYNLSGNRGDETYFSVANDTYQALSTCQAMMSQNRYGERQLTPGLNLLVPLRCACPTAKQTTAGFKYLLTYLVAMGDSISGIAEMFNSTSAAITEGNELTSDNIFFFTPVLVPLTTEPTKIVISPSPPPPPVVATPPQTPVDPPGSSSSHKWIYIGIGIGAGLLLLLSILALCFYKRRSKKKSLPSSLPEENKL
B1: in test [1], the binding result is listed as “no binding”.

B2: AtCERK1-HA (HA-tagged AtCERK1, chitin elicitor receptor kinase 1) (receptor, UniProt A8R7E6 24-617)
chain: KCRTSCPLALASYYLENGTTLSVINQNLNSSIAPYDQINFDPILRYNSNIKDKDRIQMGSRVLVPFPCECQPGDFLGHNFSYSVRQEDTYERVAISNYANLTTMESLQARNPFPATNIPLSATLNVLVNCSCGDESVSKDFGLFVTYPLRPEDSLSSIARSSGVSADILQRYNPGVNFNSGNGIVYVPGRDPNGAFPPFKSSKQDGVGAGVIAGIVIGVIVALLLILFIVYYAYRKNKSKGDSFSSSIPLSTKADHASSTSLQSGGLGGAGVSPGIAAISVDKSVEFSLEELAKATDNFNLSFKIGQGGFGAVYYAELRGEKAAIKKMDMEASKQFLAELKVLTRVHHVNLVRLIGYCVEGSLFLVYEYVENGNLGQHLHGSGREPLPWTKRVQIALDSARGLEYIHEHTVPVYVHRDIKSANILIDQKFRAKVADFGLTKLTEVGGSATRGAMGTFGYMAPETVYGEVSAKVDVYAFGVVLYELISAKGAVVKMTEAVGEFRGLVGVFEESFKETDKEEALRKIIDPRLGDSYPFDSVYKMAELGKACTQENAQLRPSMRYIVVALSTLFSSTGNWDVGNFQNEDLVSLMSGR
For B2, the binding entry in test [2] is “binds”.

B3: AtLYK5-Myc (Myc-tagged AtLYK5) (receptor, UniProt O22808 27-664)
chain: QQPYVNNHQLACEVRVYDNITNGFTCNGPPSCRSYLTFWSQPPYNTADSIAKLLNVSAAEIQSINNLPTATTRIPTRELVVIPANCSCSSSSGGFYQHNATYNLSGNRGDETYFSVANDTYQALSTCQAMMSQNRYGERQLTPGLNLLVPLRCACPTAKQTTAGFKYLLTYLVAMGDSISGIAEMFNSTSAAITEGNELTSDNIFFFTPVLVPLTTEPTKIVISPSPPPPPVVATPPQTPVDPPGSSSSHKWIYIGIGIGAGLLLLLSILALCFYKRRSKKKSLPSSLPEENKLFDSSTKQSIPTTTTTQWSIDLSNSSEAFGLKSAIESLTLYRFNDLQSATSNFSDENRIKGSVYRATINGDDAAVKVIKGDVSSSEINLLKKLNHSNIIRLSGFCIREGTSYLVFEYSENGSISDWLHSSGKKSLTWKQRVEIARDVAEALDYLHNYITPPHIHKNLESTNILLDSNFRAKIANFGVARILDEGDLDLQLTRHVEGTQGYLAPEYVENGVITSKLDVFAFGVAVLELLSGREAVTIHKKKEGEEEVEMLCKVINSVLGGENVREKLKEFMDPSLGNEYPLELAYTMAQLAKSCVATDLNSRPSVTQVLTTLSMIVSSSIDWEPSDDLLRSGSLGN
In the case of B3, the binding result in test [3] is given as “binds”.

B4: AtLYK5-HA (full length AtLYK5 under its native promoter in Atlyk5-2 mutant plants) (receptor, Arabidopsis thaliana, UniProt O22808 27-664, looked up)
chain: QQPYVNNHQLACEVRVYDNITNGFTCNGPPSCRSYLTFWSQPPYNTADSIAKLLNVSAAEIQSINNLPTATTRIPTRELVVIPANCSCSSSSGGFYQHNATYNLSGNRGDETYFSVANDTYQALSTCQAMMSQNRYGERQLTPGLNLLVPLRCACPTAKQTTAGFKYLLTYLVAMGDSISGIAEMFNSTSAAITEGNELTSDNIFFFTPVLVPLTTEPTKIVISPSPPPPPVVATPPQTPVDPPGSSSSHKWIYIGIGIGAGLLLLLSILALCFYKRRSKKKSLPSSLPEENKLFDSSTKQSIPTTTTTQWSIDLSNSSEAFGLKSAIESLTLYRFNDLQSATSNFSDENRIKGSVYRATINGDDAAVKVIKGDVSSSEINLLKKLNHSNIIRLSGFCIREGTSYLVFEYSENGSISDWLHSSGKKSLTWKQRVEIARDVAEALDYLHNYITPPHIHKNLESTNILLDSNFRAKIANFGVARILDEGDLDLQLTRHVEGTQGYLAPEYVENGVITSKLDVFAFGVAVLELLSGREAVTIHKKKEGEEEVEMLCKVINSVLGGENVREKLKEFMDPSLGNEYPLELAYTMAQLAKSCVATDLNSRPSVTQVLTTLSMIVSSSIDWEPSDDLLRSGSLGN
notes: AtLYK5 (At2g33580), Arabidopsis thaliana; genomic fragment with the 1.8 kb promoter and the coding region up to the stop codon, in pGWB13; also called wild-type AtLYK5; source: transgenic Arabidopsis (Atlyk5-2 background, native promoter), in crude extract or lysate
For B4, the binding entry in test [4] is recorded as “no binding (condition: boiled with 50 mM DTT)”.
